Results are given in words; binding and its absence hold for the method and conditions named. Some binding calls cover weakened binding; strength is not graded here.
Columns and labels:
Experiment in all cases: peptide or protein array; only the binder purified
[1] = molecular target: LSM14B, SCD6 homolog B (human) (UniProt Q9BX40)
[2] = molecular target: SplA/ryanodine receptor domain and SOCS box containing 3 (human) (UniProt Q6PJ21)
[3] = molecular target: T1, GTPase activating protein binding protein 2 (human) (UniProt Q9UN86)
T1 sequence: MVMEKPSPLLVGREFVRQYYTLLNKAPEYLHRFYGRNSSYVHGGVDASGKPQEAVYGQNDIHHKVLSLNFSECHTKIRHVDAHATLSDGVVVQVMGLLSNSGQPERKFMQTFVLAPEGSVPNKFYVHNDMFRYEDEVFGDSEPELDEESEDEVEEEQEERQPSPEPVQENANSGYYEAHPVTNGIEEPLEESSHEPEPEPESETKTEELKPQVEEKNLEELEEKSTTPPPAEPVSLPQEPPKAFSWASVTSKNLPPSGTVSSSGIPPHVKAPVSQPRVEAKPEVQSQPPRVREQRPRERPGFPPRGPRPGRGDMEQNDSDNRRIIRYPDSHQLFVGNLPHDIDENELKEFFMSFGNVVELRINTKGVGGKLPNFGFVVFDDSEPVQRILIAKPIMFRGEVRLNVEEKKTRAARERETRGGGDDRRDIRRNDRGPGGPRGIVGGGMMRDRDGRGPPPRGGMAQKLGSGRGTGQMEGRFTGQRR

The chains behind the UniProt entries cited, without tags or fusion partners. Where a name states a change or a piece, a line headed by the entry shows the natural chain unless it says otherwise.
UniProt Q9BX40: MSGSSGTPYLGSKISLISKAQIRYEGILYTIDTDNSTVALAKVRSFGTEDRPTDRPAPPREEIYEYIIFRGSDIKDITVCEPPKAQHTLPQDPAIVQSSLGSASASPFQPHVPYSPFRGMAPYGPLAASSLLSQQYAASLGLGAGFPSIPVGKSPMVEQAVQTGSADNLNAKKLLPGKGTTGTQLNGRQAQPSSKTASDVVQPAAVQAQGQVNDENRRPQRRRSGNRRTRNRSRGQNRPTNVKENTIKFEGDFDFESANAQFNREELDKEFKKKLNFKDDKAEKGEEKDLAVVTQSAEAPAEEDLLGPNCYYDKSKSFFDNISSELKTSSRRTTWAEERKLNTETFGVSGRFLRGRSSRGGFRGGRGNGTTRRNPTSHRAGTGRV
UniProt Q6PJ21: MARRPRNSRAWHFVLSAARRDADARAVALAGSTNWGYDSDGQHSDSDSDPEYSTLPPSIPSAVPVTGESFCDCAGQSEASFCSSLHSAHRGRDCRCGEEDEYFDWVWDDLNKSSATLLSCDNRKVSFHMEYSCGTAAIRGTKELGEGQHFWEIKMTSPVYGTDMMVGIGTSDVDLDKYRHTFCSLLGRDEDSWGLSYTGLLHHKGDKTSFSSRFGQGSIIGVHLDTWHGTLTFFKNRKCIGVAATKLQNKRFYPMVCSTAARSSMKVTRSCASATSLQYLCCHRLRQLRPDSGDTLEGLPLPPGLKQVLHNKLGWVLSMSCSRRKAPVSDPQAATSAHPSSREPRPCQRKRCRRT
UniProt Q96JK2: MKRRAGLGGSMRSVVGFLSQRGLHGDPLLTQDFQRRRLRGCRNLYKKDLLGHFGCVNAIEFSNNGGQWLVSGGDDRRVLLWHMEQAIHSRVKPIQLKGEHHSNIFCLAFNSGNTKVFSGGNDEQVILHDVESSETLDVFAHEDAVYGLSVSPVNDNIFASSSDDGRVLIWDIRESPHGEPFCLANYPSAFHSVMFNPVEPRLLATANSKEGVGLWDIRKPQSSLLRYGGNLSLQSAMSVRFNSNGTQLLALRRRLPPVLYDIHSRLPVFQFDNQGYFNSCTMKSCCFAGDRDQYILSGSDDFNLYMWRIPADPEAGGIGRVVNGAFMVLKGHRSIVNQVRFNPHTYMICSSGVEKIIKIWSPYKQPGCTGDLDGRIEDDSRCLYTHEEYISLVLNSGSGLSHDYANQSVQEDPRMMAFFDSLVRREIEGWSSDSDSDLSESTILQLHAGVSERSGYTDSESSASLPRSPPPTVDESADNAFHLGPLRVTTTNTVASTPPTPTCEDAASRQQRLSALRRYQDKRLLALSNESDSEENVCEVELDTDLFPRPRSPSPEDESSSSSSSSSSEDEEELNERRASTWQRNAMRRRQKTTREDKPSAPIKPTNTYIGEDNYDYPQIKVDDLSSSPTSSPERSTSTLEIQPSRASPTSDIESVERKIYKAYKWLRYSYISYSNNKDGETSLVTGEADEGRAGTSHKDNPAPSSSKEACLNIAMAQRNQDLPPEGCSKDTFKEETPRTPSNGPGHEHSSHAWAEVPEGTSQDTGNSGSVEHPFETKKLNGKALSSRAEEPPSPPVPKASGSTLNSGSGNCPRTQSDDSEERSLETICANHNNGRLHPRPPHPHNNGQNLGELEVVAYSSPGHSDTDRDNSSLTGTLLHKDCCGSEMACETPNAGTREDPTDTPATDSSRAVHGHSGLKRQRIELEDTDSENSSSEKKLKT
UniProt Q70EL1: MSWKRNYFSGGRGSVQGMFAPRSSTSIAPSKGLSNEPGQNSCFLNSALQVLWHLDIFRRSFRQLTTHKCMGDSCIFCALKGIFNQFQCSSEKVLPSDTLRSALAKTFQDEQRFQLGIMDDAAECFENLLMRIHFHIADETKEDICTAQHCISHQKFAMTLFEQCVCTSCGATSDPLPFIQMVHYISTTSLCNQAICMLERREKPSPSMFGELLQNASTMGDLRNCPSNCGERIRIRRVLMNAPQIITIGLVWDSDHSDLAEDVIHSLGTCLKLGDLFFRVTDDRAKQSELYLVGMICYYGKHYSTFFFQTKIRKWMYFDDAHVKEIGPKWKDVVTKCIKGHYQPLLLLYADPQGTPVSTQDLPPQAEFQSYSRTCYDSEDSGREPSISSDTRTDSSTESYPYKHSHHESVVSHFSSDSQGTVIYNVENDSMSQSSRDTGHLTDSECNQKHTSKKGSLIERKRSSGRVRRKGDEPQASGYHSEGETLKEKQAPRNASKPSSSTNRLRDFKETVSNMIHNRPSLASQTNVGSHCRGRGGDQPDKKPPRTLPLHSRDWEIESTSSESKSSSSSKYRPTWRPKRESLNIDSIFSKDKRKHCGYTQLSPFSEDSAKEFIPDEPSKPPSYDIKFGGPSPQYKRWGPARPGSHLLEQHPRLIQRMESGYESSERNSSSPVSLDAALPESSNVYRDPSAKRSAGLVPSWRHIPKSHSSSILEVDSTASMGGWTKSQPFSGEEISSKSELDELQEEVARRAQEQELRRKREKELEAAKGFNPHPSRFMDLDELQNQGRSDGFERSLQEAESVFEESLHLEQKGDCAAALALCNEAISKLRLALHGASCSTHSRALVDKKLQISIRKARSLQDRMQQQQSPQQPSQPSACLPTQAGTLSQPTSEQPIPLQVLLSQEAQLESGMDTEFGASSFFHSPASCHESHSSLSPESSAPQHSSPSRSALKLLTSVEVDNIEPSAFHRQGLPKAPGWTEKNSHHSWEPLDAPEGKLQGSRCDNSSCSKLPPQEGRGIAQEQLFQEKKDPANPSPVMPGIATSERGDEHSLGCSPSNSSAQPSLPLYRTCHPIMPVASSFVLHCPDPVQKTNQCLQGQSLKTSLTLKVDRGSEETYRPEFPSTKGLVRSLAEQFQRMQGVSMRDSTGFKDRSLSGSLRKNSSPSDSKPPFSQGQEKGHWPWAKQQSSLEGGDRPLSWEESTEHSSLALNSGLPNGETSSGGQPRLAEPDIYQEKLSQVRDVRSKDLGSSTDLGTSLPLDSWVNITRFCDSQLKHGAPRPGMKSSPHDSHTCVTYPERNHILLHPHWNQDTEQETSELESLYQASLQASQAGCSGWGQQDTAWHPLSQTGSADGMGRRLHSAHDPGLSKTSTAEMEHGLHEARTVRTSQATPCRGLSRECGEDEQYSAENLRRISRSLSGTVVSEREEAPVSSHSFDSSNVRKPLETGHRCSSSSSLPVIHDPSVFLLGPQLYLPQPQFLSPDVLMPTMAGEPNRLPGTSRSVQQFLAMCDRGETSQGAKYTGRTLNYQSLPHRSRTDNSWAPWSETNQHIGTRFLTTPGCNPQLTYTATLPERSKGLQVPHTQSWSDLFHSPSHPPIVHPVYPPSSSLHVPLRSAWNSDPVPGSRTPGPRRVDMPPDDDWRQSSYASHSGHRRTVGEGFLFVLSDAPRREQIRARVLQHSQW
UniProt Q96AP0: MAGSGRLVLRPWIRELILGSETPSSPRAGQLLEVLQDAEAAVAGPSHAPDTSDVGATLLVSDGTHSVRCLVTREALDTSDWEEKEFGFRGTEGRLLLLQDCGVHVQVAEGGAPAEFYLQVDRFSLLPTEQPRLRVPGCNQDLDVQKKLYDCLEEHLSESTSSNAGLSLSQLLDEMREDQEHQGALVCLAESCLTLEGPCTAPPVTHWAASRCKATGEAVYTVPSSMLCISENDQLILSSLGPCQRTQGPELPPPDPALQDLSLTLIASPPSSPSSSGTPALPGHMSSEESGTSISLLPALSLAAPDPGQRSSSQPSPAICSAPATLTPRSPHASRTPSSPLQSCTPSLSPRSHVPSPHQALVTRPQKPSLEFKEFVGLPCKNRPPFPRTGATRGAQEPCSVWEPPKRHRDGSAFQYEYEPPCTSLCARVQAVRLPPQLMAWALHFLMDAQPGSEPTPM
UniProt P50225: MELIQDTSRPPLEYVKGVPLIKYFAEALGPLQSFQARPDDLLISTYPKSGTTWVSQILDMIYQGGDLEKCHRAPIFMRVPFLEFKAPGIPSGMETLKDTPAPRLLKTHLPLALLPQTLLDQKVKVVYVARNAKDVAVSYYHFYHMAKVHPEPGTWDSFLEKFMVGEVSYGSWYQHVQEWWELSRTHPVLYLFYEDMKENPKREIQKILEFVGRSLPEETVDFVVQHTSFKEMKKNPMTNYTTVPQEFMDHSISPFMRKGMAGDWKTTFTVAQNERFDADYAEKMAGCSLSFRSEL
UniProt O95793: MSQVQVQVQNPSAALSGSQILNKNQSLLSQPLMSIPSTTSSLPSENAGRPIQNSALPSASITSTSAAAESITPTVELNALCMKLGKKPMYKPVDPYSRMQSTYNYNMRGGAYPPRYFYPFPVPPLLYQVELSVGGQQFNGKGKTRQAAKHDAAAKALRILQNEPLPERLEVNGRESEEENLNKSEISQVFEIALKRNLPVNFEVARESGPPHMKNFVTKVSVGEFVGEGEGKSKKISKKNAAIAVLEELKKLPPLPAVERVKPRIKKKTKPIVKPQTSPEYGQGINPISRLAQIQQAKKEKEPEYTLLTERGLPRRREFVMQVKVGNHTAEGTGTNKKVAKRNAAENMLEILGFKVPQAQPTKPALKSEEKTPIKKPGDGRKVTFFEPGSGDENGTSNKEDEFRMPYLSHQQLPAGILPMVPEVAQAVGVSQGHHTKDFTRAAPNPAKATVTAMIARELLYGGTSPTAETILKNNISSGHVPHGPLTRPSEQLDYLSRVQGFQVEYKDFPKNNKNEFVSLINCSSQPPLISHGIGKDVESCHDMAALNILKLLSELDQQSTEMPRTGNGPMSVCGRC
UniProt P13202: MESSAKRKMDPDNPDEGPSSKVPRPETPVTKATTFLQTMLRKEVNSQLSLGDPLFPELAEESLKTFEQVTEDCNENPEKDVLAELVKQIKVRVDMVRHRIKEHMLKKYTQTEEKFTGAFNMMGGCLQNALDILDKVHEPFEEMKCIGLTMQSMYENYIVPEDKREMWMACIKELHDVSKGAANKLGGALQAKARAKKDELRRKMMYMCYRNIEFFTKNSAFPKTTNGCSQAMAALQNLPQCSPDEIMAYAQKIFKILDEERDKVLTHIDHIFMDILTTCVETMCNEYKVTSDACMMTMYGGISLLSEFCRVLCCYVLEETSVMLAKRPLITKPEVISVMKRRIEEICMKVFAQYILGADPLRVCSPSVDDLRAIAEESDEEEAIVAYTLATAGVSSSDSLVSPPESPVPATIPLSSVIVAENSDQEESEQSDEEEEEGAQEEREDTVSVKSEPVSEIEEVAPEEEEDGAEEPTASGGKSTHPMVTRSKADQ

[4] = molecular target: WD repeat domain 22 (WDR22) (human) (UniProt Q96JK2)
[5] = molecular target: T2, zinc finger protein 36, C3H type-like 2 (ZFP36L2) (human) (UniProt P47974)
T2 sequence: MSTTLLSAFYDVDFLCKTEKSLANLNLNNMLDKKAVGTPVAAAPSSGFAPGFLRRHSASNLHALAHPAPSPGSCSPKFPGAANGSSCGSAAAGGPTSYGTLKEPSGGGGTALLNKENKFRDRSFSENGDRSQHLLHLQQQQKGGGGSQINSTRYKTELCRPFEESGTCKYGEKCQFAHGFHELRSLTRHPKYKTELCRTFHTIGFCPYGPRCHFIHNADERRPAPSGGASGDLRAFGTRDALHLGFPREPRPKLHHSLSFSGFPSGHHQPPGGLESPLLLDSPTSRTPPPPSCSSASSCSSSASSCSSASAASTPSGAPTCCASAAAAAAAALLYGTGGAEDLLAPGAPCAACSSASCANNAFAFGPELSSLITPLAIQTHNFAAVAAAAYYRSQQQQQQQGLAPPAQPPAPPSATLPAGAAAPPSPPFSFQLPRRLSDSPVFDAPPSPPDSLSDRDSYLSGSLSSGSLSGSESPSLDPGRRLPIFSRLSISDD

[6] = molecular target: Ubiquitin specific peptidase 54 (USP54) (human) (UniProt Q70EL1)
[7] = molecular target: Adrenocortical dysplasia homolog (mouse) (ACD), transcript variant 1 (human) (UniProt Q96AP0)
[8] = molecular target: T3, Metastasis suppressor 1 (MTSS1) (human) (UniProt O43312)
T3 sequence: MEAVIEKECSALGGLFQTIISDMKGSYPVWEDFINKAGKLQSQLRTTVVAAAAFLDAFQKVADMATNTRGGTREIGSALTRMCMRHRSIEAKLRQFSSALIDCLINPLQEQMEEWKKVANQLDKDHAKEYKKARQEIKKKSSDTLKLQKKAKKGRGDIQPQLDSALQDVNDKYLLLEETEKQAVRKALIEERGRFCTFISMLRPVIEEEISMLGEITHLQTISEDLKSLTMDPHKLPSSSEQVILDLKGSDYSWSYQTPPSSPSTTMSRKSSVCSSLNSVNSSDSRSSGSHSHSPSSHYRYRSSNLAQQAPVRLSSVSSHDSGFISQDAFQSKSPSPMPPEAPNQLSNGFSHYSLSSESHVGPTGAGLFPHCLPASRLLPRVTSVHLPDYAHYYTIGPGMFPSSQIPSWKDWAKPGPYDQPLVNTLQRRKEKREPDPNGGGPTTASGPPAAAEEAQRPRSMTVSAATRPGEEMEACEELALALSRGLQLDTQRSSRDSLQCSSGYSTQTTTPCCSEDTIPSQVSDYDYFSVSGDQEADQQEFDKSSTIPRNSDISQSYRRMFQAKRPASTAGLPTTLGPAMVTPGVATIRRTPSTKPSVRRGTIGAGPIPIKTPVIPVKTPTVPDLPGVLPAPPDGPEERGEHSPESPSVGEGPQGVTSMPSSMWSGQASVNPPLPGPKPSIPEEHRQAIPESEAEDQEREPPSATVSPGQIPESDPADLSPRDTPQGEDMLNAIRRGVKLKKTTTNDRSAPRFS

[9] = molecular target: T4, peroxisomal biogenesis factor 19 (PEX19) (human) (UniProt P40855)
T4 sequence: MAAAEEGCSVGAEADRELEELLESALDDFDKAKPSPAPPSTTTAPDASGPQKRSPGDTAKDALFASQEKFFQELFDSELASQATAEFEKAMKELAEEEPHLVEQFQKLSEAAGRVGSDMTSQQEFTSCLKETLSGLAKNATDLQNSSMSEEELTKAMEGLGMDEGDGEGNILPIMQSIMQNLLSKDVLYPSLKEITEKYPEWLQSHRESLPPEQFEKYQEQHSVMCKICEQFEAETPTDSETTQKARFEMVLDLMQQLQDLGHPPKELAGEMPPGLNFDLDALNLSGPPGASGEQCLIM

[10] = molecular target: Phenol-sulfating phenol sulfotransferase 1 (human) (UniProt P50225)
[11] = molecular target: Staufen, RNA binding protein (human) (UniProt O95793)

Measured: binding

Human cytomegalovirus immediate-early protein 1 (from UniProt P13202 1-491)
binds: [1] | [2] | [3] | [4] | [5] | [6] | [7] | [8] | [9] | [10] | [11]

Reference: article PMC3917433
